Among the data in patent publication US12729225B2, “Non-canonical SWI/SNF complex and uses thereof” (Dana-Farber Cancer Institute, Inc., priority 2018, dated 2026) are Total and Unique values, retold here.

In this data set the test system is mSWI/SNF complexes. The data set is described as follows: mSWI/SNF complex purification with HA-tagged baits and mass spectrometry (peptide counts). More on the design: species or system human.
Where [1] appears, read: 293_HA-BRD7 bait purification, mass spectrometry, total peptides per co-purified protein.
[2] abbreviates: 293_HA-BRD7 bait purification, mass spectrometry, unique peptides per co-purified protein.
The mark [3] stands for this setting: 293_HA-BRD7 bait purification, mass spectrometry, total peptide count per identified protein.
The mark [4] stands for this setting: 293_HA-BRD7 bait purification, mass spectrometry, unique peptide count per identified protein.
Where [5] appears, read: 293_HA-BRD7: HA-BRD7 bait purification, total peptide count per co-purified protein.
Setting [6] is: 293_HA-BRD7: HA-BRD7 bait purification, unique peptide count per co-purified protein.
The mark [7] stands for this setting: 293_HA-DPF2 purification, total peptides.
Setting [8] is: 293_HA-DPF2 purification, unique peptides.
[9] abbreviates: total peptide count of the co-purified protein, 293_HA-BRD9 (HA-BRD9 bait, mass spectrometry), Table 3b.
Where [10] appears, read: unique peptide count of the co-purified protein, 293_HA-BRD9 (HA-BRD9 bait, mass spectrometry), Table 3b.

Under setting [1], SPTLC1 showed a Total of 3. For the same substance, the Unique under setting [2] is on record as 3.
In turn, RFC5 yielded a Total under setting [1] of 4. The Unique under setting [2] is given as 4.
Under setting [1], PSPC1 gave a Total of 2. For the same substance, the Unique under setting [2] came to 1.
Substance ##INF2 displayed a Total under setting [3] of 1. Also, the Unique under setting [4] came to 1.
For the substance ATP5B, the Total under setting [5] is on record as 38, the Total under setting [7] is listed as 6 and the Total under setting [9] is 10. For the same substance, the Unique stood at 30 under setting [6], 5 under setting [8] and 10 under setting [10].
Under setting [1], YWHAQ returned a Total of 1. Under setting [2], this substance displayed a Unique of 1.
In the case of PCBP1, the Total turned out to be 10 under setting [5] and 2 under setting [9]. Also, the Unique runs as follows: under setting [6], 10; under setting [10], 2.
With GLUD1, under setting [1], the Total is reported as 3. Moreover, the Unique under setting [2] turned out to be 3.
With HIST1H1C, the Total under setting [9] is on record as 1. The same substance returned a Unique under setting [10] of 1.
Under setting [1], SUPT16H showed a Total of 2. Moreover, the Unique under setting [2] is 2.
As for EPB41L2, the Total under setting [1] was 4. The Unique under setting [2] is 4.
As for HSP90B1, the Total under setting [5] is on record as 11. This substance also gave a Unique under setting [6] of 11.
On to SNIP1, for which the Total under setting [3] worked out at 1. The same substance displayed a Unique under setting [4] of 1.
Substance SMCHD1 showed a Total under setting [1] of 2. Under setting [2], this substance displayed a Unique of 2.
Turning to HDAC2, the Total under setting [1] is reported as 2. The substance also registered a Unique under setting [2] of 2.
In turn, NUP210 had a Total under setting [1] of 2. Besides, the Unique under setting [2] is on record as 2.
In turn, HSP90AB1 had a Total under setting [5] of 4. In addition, the Unique under setting [6] was found to be 4.
RAD50: the Total under setting [1] is recorded as 2. The substance also gave a Unique under setting [2] of 2.
Under setting [3], DNM2 showed a Total of 1. Besides, the Unique under setting [4] stood at 1.
For BCL7C, the Total under setting [5] amounted to 17, the Total under setting [7] was 13 and the Total under setting [9] turned out to be 3. Also, the Unique reads like this: under setting [6], 10; under setting [8], 7; under setting [10], 3.
With ##RAD50, the Total under setting [3] is 1. In addition, the Unique under setting [4] was found to be 1.
PRSS1 showed a Total under setting [9] of 3. The Unique under setting [10] came out at 1.
In the case of PELO, the Total under setting [3] was 1. This substance displayed a Unique under setting [4] of 1.
Regarding TPR, under setting [1], the Total was 4. Further, the Unique under setting [2] is 4.
Turning to KRT16, the Total under setting [5] was found to be 6. Under setting [6], this substance gave a Unique of 4.
Under setting [5], HNRNPU showed a Total of 5. Also, under setting [6], the Unique was 5.
The substance ARID1B gave a Total under setting [7] of 147. Besides, the Unique under setting [8] came to 85.
In turn, SLC27A4 showed a Total under setting [3] of 1. The substance further had a Unique under setting [4] of 1.
##TIGD4: under setting [3], the Total came out at 1. Besides, the Unique under setting [4] is 1.
For the substance KHDRBS1, the Total under setting [1] came out at 4. Also, the Unique under setting [2] was 4.
In the case of DDX41, the Total was determined as 36 under setting [5] and 3 under setting [9]. Also, the Unique is 33 under setting [6] and 3 under setting [10].
Turning to EFTUD2, the Total came out at 11 under setting [5] and 6 under setting [9]. Besides, the Unique under setting [6] came to 11 and the Unique under setting [10] came out at 6.
Under setting [3], CTPS1 came in with a Total of 1. For the same substance, under setting [4], the Unique stood at 1.
Consider FLNA, for which the Total under setting [5] came out at 4. The substance also registered a Unique under setting [6] of 4.
With HSPA5, the Total under setting [5] is recorded as 34, the Total under setting [7] was 5 and the Total under setting [9] was 20. The Unique was determined as 29 under setting [6], 5 under setting [8] and 15 under setting [10].
Under setting [1], INTS3 came in with a Total of 3. Moreover, under setting [2], the Unique is recorded as 2.
In turn, EEF1G had a Total under setting [5] of 6. This substance also showed a Unique under setting [6] of 5.
HSP90AA1 returned a Total under setting [1] of 3. For the same substance, the Unique under setting [2] is on record as 3.
On to ##MYH14, for which the Total under setting [3] was 1. The Unique under setting [4] was 1.
In turn, PSMC5 displayed a Total under setting [3] of 1. This substance displayed a Unique under setting [4] of 1.
The substance EPB41L5 displayed a Total under setting [5] of 32. In addition, under setting [6], the Unique turned out to be 26.
In turn, PDIA6 had a Total under setting [5] of 4. Under setting [6], this substance displayed a Unique of 4.
For WWP1, under setting [1], the Total stood at 2. For the same substance, under setting [2], the Unique stood at 2.
On to SPTAN1, for which the Total under setting [1] came out at 3. The substance also displayed a Unique under setting [2] of 3.
HAX1 registered a Total under setting [1] of 2. Further, the Unique under setting [2] came to 2.
Take PTBP1: under setting [5], the Total was found to be 9. This substance gave a Unique under setting [6] of 9.
On to ELAVL1, for which the Total under setting [1] was 3. Under setting [2], the Unique is listed as 3.
Turning to HMGB1, under setting [1], the Total was 3. The same substance gave a Unique under setting [2] of 3.
As to SUMO2, the Total under setting [3] was 1. Besides, the Unique under setting [4] is 1.
In turn, RPL22L1 returned a Total under setting [1] of 1. The substance also yielded a Unique under setting [2] of 1.
The substance ##GOLGA4 returned a Total under setting [3] of 1. Further, the Unique under setting [4] was 1.
